Experimental data: PubChem BioAssay AID1259308 (NCATS, 2017)
Aim: 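Genes whose loss raises luciferase production in HEK293 cells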 (primary screen). Cell system: human HEK293 embryonic kidney cells stably expressing firefly luciferase (HEK-CMV-Luc2-Hygro). Knock-down reagent: single siRNA against human genes, 0.8 pmol siRNA per well. Time to read-out: 72 h. Measurement: 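Reporter luminescence and viable-cell signal on separate replicate plates, given as percent of non-targeting control and median/MAD z-scores, plus per-cell luciferase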. Scale: total luciferase, z-score and total luciferase, % of control: higher = more reporter protein produced. Call rule: 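Active when the median/MAD z-score for overall luciferase is greater than 3; a gene was taken forward for validation with new siRNAs if at least two of its three siRNAs passed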. Meaning of the calls: active = raised luciferase; inactive = no rise.
The whole screen tested about 59,000 reagents; this is a part drawn at random. About 1,510 of them (2.6%) were called active. 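Calls use total luciferase alone and ignore viability, so some active siRNAs may act by altering cell number.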 Entries without a mark were called inactive. Reagents against one gene are numbered here. Not all columns of the deposit are shown. No sequences are given here.

no.	target	reagent	total luciferase, z-score	total luciferase, % of control
1	LOC440982	1	0.614	94.1
2	LOC440982	2	-1.39	54.2
3	LOC440982	3	0.395	89.7
4	SPATC1L (spermatogenesis and centriole associated 1 like)	1	0.452	90.9
5	SPATC1L (spermatogenesis and centriole associated 1 like)	2	-0.697	68
6	SPATC1L (spermatogenesis and centriole associated 1 like)	3	-0.143	79.1
7	C1orf216 (chromosome 1 open reading frame 216)	1	0.187	85.6
8	C1orf216 (chromosome 1 open reading frame 216)	2	-2.22	37.8
9	C1orf216 (chromosome 1 open reading frame 216)	3	-0.614	69.7
10	MED29 (mediator complex subunit 29)	1	-0.513	71.7
11	MED29 (mediator complex subunit 29)	2	1.71	116
12	MED29 (mediator complex subunit 29)	3	-1.6	50.1
13	LINC02914 (long independently transcribed non-coding RNA 2914)	1	1.12	104
14	LINC02914 (long independently transcribed non-coding RNA 2914)	2	1.95	121
15	LINC02914 (long independently transcribed non-coding RNA 2914)	3	0.218	86.2
16	IZUMO2 (IZUMO family member 2)	1	-0.142	79.1
17	IZUMO2 (IZUMO family member 2)	2	1.28	107
18	IZUMO2 (IZUMO family member 2)	3	5.35 (active)	188
19	TMEM69 (transmembrane protein 69)	1	0.903	99.8
20	TMEM69 (transmembrane protein 69)	2	0.163	85.1
21	TMEM69 (transmembrane protein 69)	3	2.81	138
22	DDX46 (DEAD-box helicase 46)	1	2.23	126
23	DDX46 (DEAD-box helicase 46)	2	0.603	93.9
24	DDX46 (DEAD-box helicase 46)	3	0.623	94.3

Already shown: entries from further up.
no.	target	reagent	total luciferase, z-score	total luciferase, % of control
12	MED29 (mediator complex subunit 29)	3	-1.6	50.1
13	LINC02914 (long independently transcribed non-coding RNA 2914)	1	1.12	104
14	LINC02914 (long independently transcribed non-coding RNA 2914)	2	1.95	121
15	LINC02914 (long independently transcribed non-coding RNA 2914)	3	0.218	86.2
16	IZUMO2 (IZUMO family member 2)	1	-0.142	79.1
17	IZUMO2 (IZUMO family member 2)	2	1.28	107

Further records:
no.	target	reagent	total luciferase, z-score	total luciferase, % of control
25	CNST (consortin, connexin sorting protein)	1	-0.531	71.3
26	CNST (consortin, connexin sorting protein)	2	-0.618	69.6
27	CNST (consortin, connexin sorting protein)	3	1.14	105
28	SUPT3H (SPT3 homolog, SAGA and STAGA complex component)	1	-0.24	77.1
29	SUPT3H (SPT3 homolog, SAGA and STAGA complex component)	2	0.255	87
30	SUPT3H (SPT3 homolog, SAGA and STAGA complex component)	3	-0.971	62.6
31	FAM32A (family with sequence similarity 32 member A)	1	-2.5	32.1
32	FAM32A (family with sequence similarity 32 member A)	2	0.389	89.6
33	FAM32A (family with sequence similarity 32 member A)	3	-0.637	69.2
34	PCDHGB6 (protocadherin gamma subfamily B, 6)	1	1.28	107
35	PCDHGB6 (protocadherin gamma subfamily B, 6)	2	0.17	85.3
36	PCDHGB6 (protocadherin gamma subfamily B, 6)	3	0.133	84.5
37	ZNF326 (zinc finger protein 326)	1	-0.174	78.4
38	ZNF326 (zinc finger protein 326)	2	0.00997	82.1
39	ZNF326 (zinc finger protein 326)	3	-0.686	68.2
